{"source": "the supplement of paper PMC4635364", "key": {"[1]": {"system": "ReNCell VM", "experiment": "neuronal differentiation score (DCX+ cell fraction vs untreated, manual image score) (score (-3 to 3)); higher = more neuronal differentiation", "settings": "2 uM, 2 weeks"}, "[2]": {"system": "ReNCell VM", "experiment": "dopaminergic neuron differentiation score (TH+ cell fraction vs untreated, manual image score) (score (0 to 3)); higher = more TH+ dopaminergic neuron differentiation", "settings": "2 uM, 4 weeks, BDNF 10 ng/ml + GDNF 10 ng/ml"}}, "note": "Structures can show the parent of a compound that is named as a salt. This is one part of the list. This data set is noisy: repeats of one test often differ as much as different tests do.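 Human fetal ventral-midbrain neural progenitor line ReNCell VM, differentiated without mitogens. Images stained for doublecortin (early neurons) or tyrosine hydroxylase (dopaminergic neurons) were scored by blinded raters against untreated wells (0 = no change). Repeats and both raters were averaged, and compounds averaging 2 or higher were picked as hits for retesting.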", "data": [{"smiles": "COC(=O)C1=C(C)NC(C)=C(C(=O)OCCSc2ccccc2)C1C", "note": "(stereo not given)", "values": [{"measurement": "neuronal differentiation score", "setting": "[1]; library: Tocriscreen", "result": "inactive: 0"}, {"measurement": "dopaminergic neuron differentiation score", "setting": "[2]; library: Tocriscreen", "result": "inactive: 0"}]}, {"smiles": "COc1ccc2cc([C@H](C)CO)ccc2c1", "values": [{"measurement": "neuronal differentiation score", "setting": "[1]; library: Spectrum", "result": "inactive: 0"}, {"measurement": "dopaminergic neuron differentiation score", "setting": "[2]; library: Spectrum", "result": "inactive: 0"}]}, {"smiles": "CCN[C@H]1C[C@H](C)S(=O)(=O)c2sc(S(N)(=O)=O)cc21", "note": "[Dorzolamide hydrochloride]", "values": [{"measurement": "neuronal differentiation score", "setting": "[1]; library: Prestwick", "result": "inactive: 0"}, {"measurement": "dopaminergic neuron differentiation score", "setting": "[2]; library: Prestwick", "result": "inactive: 0"}]}, {"smiles": "COc1ccc([C@H]2c3cc(OC)c(OC)cc3C[C@@H](C)[C@@H]2C)cc1OC", "note": "[galbulin]", "values": [{"measurement": "neuronal differentiation score", "setting": "[1]; library: Natural", "result": "inactive: 0"}, {"measurement": "dopaminergic neuron differentiation score", "setting": "[2]; library: Natural", "result": "inactive: 0"}]}, {"smiles": "CCN(CC)CCOC(=O)C(c1ccccc1)C1CCCCC1", "note": "(stereo not given) [Drofenine hydrochloride]", "values": [{"measurement": "neuronal differentiation score", "setting": "[1]; library: Prestwick", "result": "inactive: 0"}, {"measurement": "dopaminergic neuron differentiation score", "setting": "[2]; library: Prestwick", "result": "inactive: 1"}]}, {"smiles": "N#C/C(=C\\c1ccc(O)c(O)c1)C(=O)OCCc1cccs1", "values": [{"measurement": "neuronal differentiation score", "setting": "[1]; library: Tocriscreen", "result": "inactive: 0"}, {"measurement": "dopaminergic neuron differentiation score", "setting": "[2]; library: Tocriscreen", "result": "inactive: 0"}]}, {"smiles": "NC(=O)c1ccc([N+](=O)[O-])cc1Cl", "values": [{"measurement": "neuronal differentiation score", "setting": "[1]; library: Spectrum", "result": "inactive: 0"}, {"measurement": "dopaminergic neuron differentiation score", "setting": "[2]; library: Spectrum", "result": "inactive: 0"}]}, {"smiles": "CN(C)CCOc1ccc(/C(=C(/CCCl)c2ccccc2)c2ccccc2)cc1", "values": [{"measurement": "neuronal differentiation score", "setting": "[1]; library: Spectrum", "result": "inactive: 0"}, {"measurement": "dopaminergic neuron differentiation score", "setting": "[2]; library: Spectrum", "result": "inactive: 1"}]}, {"smiles": "Clc1ccc(COC(Cn2ccnc2)c2ccc(Cl)cc2Cl)c(Cl)c1", "note": "(stereo not given) [Miconazole]", "values": [{"measurement": "neuronal differentiation score", "setting": "[1]; library: Prestwick", "result": "inactive: 0"}, {"measurement": "dopaminergic neuron differentiation score", "setting": "[2]; library: Prestwick", "result": "active: 3"}]}, {"smiles": "CC/C(=C(/CC)c1ccc(O)cc1)c1ccc(O)cc1", "values": [{"measurement": "neuronal differentiation score", "setting": "[1]; library: Spectrum", "result": "inactive: 0"}, {"measurement": "dopaminergic neuron differentiation score", "setting": "[2]; library: Spectrum", "result": "inactive: 0"}]}, {"smiles": "COc1cc(NS(C)(=O)=O)ccc1Nc1c2ccccc2nc2ccccc12", "values": [{"measurement": "neuronal differentiation score", "setting": "[1]; library: Spectrum", "result": "inactive: 0"}, {"measurement": "dopaminergic neuron differentiation score", "setting": "[2]; library: Spectrum", "result": "inactive: 0"}]}, {"smiles": "O=c1[nH]c(=O)c2ccccc2o1", "values": [{"measurement": "neuronal differentiation score", "setting": "[1]; library: Spectrum", "result": "inactive: 0"}, {"measurement": "dopaminergic neuron differentiation score", "setting": "[2]; library: Spectrum", "result": "inactive: 0"}]}, {"smiles": "CN1C[C@H](O)[C@@H](O)[C@H](O)[C@H]1CO", "note": "[N-Methyl-1-deoxynojirimycin]", "values": [{"measurement": "neuronal differentiation score", "setting": "[1]; library: LOPAC", "result": "inactive: 0"}, {"measurement": "dopaminergic neuron differentiation score", "setting": "[2]; library: LOPAC", "result": "inactive: 0"}]}, {"smiles": "COC(=O)N/N=C/c1c[n+]([O-])c2ccccc2[n+]1[O-]", "note": "[Carbadox]", "values": [{"measurement": "neuronal differentiation score", "setting": "[1]; library: Prestwick", "result": "inactive: 0"}, {"measurement": "dopaminergic neuron differentiation score", "setting": "[2]; library: Prestwick", "result": "inactive: 0"}]}, {"smiles": "Cc1occc(=O)c1O", "values": [{"measurement": "neuronal differentiation score", "setting": "[1]; library: Spectrum", "result": "inactive: 0"}, {"measurement": "dopaminergic neuron differentiation score", "setting": "[2]; library: Spectrum", "result": "inactive: 0"}]}, {"smiles": "NC1(C(=O)O)CCCCC1", "note": "[1-Amino-1-cyclohexanecarboxylic acid hydrochloride]", "values": [{"measurement": "neuronal differentiation score", "setting": "[1]; library: LOPAC", "result": "inactive: 0"}, {"measurement": "dopaminergic neuron differentiation score", "setting": "[2]; library: LOPAC", "result": "inactive: 0"}]}, {"smiles": "CN[C@H](CC(C)C)C(=O)N[C@H]1C(=O)N[C@@H](CC(N)=O)C(=O)N[C@H]2C(=O)N[C@H]3C(=O)N[C@H](C(=O)N[C@H](C(=O)O)c4cc(O)cc(O)c4-c4cc3ccc4O)[C@H](O)c3ccc(c(Cl)c3)Oc3cc2cc(c3O[C@@H]2O[C@H](CO)[C@@H](O)[C@H](O)[C@H]2O[C@H]2C[C@](C)(N)[C@H](O)[C@H](C)O2)Oc2ccc(cc2Cl)[C@H]1O", "note": "[Vancomycin hydrochloride from Streptomyces orientalis]", "values": [{"measurement": "neuronal differentiation score", "setting": "[1]; library: LOPAC", "result": "inactive: 0"}, {"measurement": "dopaminergic neuron differentiation score", "setting": "[2]; library: LOPAC", "result": "inactive: 0"}]}, {"smiles": "O=C(c1ccccc1)c1ccc2n1CCC2C(=O)O", "note": "(stereo not given)", "values": [{"measurement": "neuronal differentiation score", "setting": "[1]; library: Spectrum", "result": "inactive: 0"}, {"measurement": "dopaminergic neuron differentiation score", "setting": "[2]; library: Spectrum", "result": "inactive: 0"}]}, {"smiles": "COc1c2c(cc3c1C(CC(=O)c1c(O)c(OC)c4occc4c1OC)[N+](C)(C)CC3)OCO2", "note": "(stereo not given)", "values": [{"measurement": "neuronal differentiation score", "setting": "[1]; library: Natural", "result": "inactive: 0"}, {"measurement": "dopaminergic neuron differentiation score", "setting": "[2]; library: Natural", "result": "inactive: 0"}]}, {"smiles": "NC(=NCCC[C@H](N)C(=O)O)NO", "note": "[NG-Hydroxy-L-arginine acetate]", "values": [{"measurement": "neuronal differentiation score", "setting": "[1]; library: LOPAC", "result": "inactive: 0"}, {"measurement": "dopaminergic neuron differentiation score", "setting": "[2]; library: LOPAC", "result": "inactive: 0"}]}, {"smiles": "CCN(CC)C(=O)/C(C#N)=C/c1cc(O)c(O)c([N+](=O)[O-])c1", "values": [{"measurement": "neuronal differentiation score", "setting": "[1]; library: Spectrum", "result": "inactive: 0"}, {"measurement": "dopaminergic neuron differentiation score", "setting": "[2]; library: Spectrum", "result": "inactive: 0"}]}, {"smiles": "CSCC[C@H](NC(=O)[C@H](Cc1c[nH]c2ccccc12)NC(=O)CCNC(=O)OC(C)(C)C)C(=O)N[C@@H](CC(=O)O)C(=O)N[C@@H](Cc1ccccc1)C(N)=O", "values": [{"measurement": "neuronal differentiation score", "setting": "[1]; library: Spectrum", "result": "inactive: 0"}, {"measurement": "dopaminergic neuron differentiation score", "setting": "[2]; library: Spectrum", "result": "inactive: 0"}]}, {"smiles": "CC(=O)O[C@H]1C[C@@]2(C)[C@@H](C[C@@H](O)[C@H]3[C@@]4(C)CC[C@@H](O)[C@@H](C)[C@@H]4CC[C@@]32C)/C1=C(\\CCC=C(C)C)C(=O)O", "values": [{"measurement": "neuronal differentiation score", "setting": "[1]; library: Spectrum", "result": "inactive: 0"}, {"measurement": "dopaminergic neuron differentiation score", "setting": "[2]; library: Spectrum", "result": "inactive: 0"}]}, {"smiles": "Cc1cn([C@H]2C=C[C@@H](CO)O2)c(=O)[nH]c1=O", "note": "[Stavudine]", "values": [{"measurement": "neuronal differentiation score", "setting": "[1]; library: Prestwick", "result": "inactive: 0"}, {"measurement": "dopaminergic neuron differentiation score", "setting": "[2]; library: Prestwick", "result": "inactive: 0"}]}, {"smiles": "COc1ccc2cccc(N3CCN(CCNC(=O)c4ccc(F)cc4)CC3)c2c1", "values": [{"measurement": "neuronal differentiation score", "setting": "[1]; library: Tocriscreen", "result": "inactive: 0"}, {"measurement": "dopaminergic neuron differentiation score", "setting": "[2]; library: Tocriscreen", "result": "inactive: 0"}]}, {"smiles": "S=C(Nc1ccccc1)Nc1nccs1", "note": "[1-Phenyl-3-(2-thiazolyl)-2-thiourea]", "values": [{"measurement": "neuronal differentiation score", "setting": "[1]; library: LOPAC", "result": "inactive: 0"}, {"measurement": "dopaminergic neuron differentiation score", "setting": "[2]; library: LOPAC", "result": "inactive: 0"}]}, {"smiles": "CC1CCC(NC(=O)N(CCCl)N=O)CC1", "note": "(stereo not given)", "values": [{"measurement": "neuronal differentiation score", "setting": "[1]; library: Spectrum", "result": "inactive: 0"}, {"measurement": "dopaminergic neuron differentiation score", "setting": "[2]; library: Spectrum", "result": "inactive: 0"}]}, {"smiles": "O=C(O)CCCc1ccccc1", "values": [{"measurement": "neuronal differentiation score", "setting": "[1]; library: Spectrum", "result": "inactive: 0"}, {"measurement": "dopaminergic neuron differentiation score", "setting": "[2]; library: Spectrum", "result": "inactive: 0"}]}, {"smiles": "CC1NC(=O)OC1c1ccccc1", "note": "(stereo not given) [4-methyl-5-phenyl-2-oxazolidinone]", "values": [{"measurement": "neuronal differentiation score", "setting": "[1]; library: Natural", "result": "inactive: 0"}, {"measurement": "dopaminergic neuron differentiation score", "setting": "[2]; library: Natural", "result": "inactive: 0"}]}, {"smiles": "Nc1nc2c(nc(Br)n2[C@@H]2O[C@@H]3COP(=O)(O)O[C@H]3[C@H]2O)c(=O)[nH]1", "note": "[8-Bromo-cGMP, sodium salt]", "values": [{"measurement": "neuronal differentiation score", "setting": "[1]; library: Tocriscreen", "result": "inactive: 0"}, {"measurement": "dopaminergic neuron differentiation score", "setting": "[2]; library: Tocriscreen", "result": "inactive: 0"}]}]}
